Results reported in PubChem BioAssay AID248 (DTP/NCI, 2004).
The list is a part of this screen's results and no random one: it gathers tests that were run many times, whatever their T/C, doses with no T/C, and many T/C values between a quarter and a half above the control. Other doses and runs of a compound stand elsewhere. T/C gives the treated animals as a percentage of the vehicle group. Some entries give survivors of the animals treated and no T/C: the source files T/C as zero there, which appears to mark a toxic dose or a test without result, not a measured value. Some doses without a T/C left all or most animals alive at the check, yet need not have been tolerated: the source hardly ever lists a survival T/C far under the control, and the zero likely stands for such cases as well. Counts of survivors are from the toxicity check (mostly the fifth day) where no day follows; animals may have died later. Schedule codes are those of the source, read here as Q, the interval in days (D) or hours (H), X, the number of doses. For survival time, this PubChem deposit counts one and a half times the control or more as active, and values a quarter to a half above the control carry no call in these data; other NCI protocols may use other cut-offs. Some schedule codes hold Z or #, which are not explained here.

System: L1210 leukemia ip in BDF1 mice, survival T/C
Assay: NCI In Vivo Anticancer Drug Screen. Data for tumor model L1210 Leukemia (intraperitoneal) in B6D2F1 (BDF1) mice
Details: higher T/C = longer survival
[1] = T/C endpoint: mean survival time, dose: 200.0 mg/kg/injection, schedule: Q04DX003 (ip), vehicle: saline with Tween-80
[2] = T/C endpoint: mean survival time, dose: 400.0 mg/kg/injection, schedule: Q04DX003 (ip), vehicle: saline with Tween-80
[3] = T/C endpoint: mean survival time, dose: 100.0 mg/kg/injection, schedule: Q04DX003 (ip), vehicle: saline with Tween-80
[4] = T/C endpoint: mean survival time, dose: 200.0 mg/kg/injection, schedule: Q04DX003 (ip), vehicle: Klucel (hydroxypropylcellulose) (HPC)
[5] = T/C endpoint: mean survival time, dose: 400.0 mg/kg/injection, schedule: Q04DX003 (ip), vehicle: Klucel (hydroxypropylcellulose) (HPC)

## CSc1cc(-c2ccccc2)c2ccccc2[n+]1C
T/C endpoint: mean survival time, dose: 50.0 mg/kg/injection, schedule: Q01DX009 (ip), vehicle: saline with Tween-80
  survivor count: 6 of 6
T/C endpoint: mean survival time, dose: 100.0 mg/kg/injection, schedule: Q01DX009 (ip), vehicle: saline with Tween-80
  survivor count: 0 of 6
[1]
  survivor count: 0 of 6
[2]
  survivor count: 2 of 6

## CCCCCCCCC(=O)N(C)CCO
[3]
  survivor count: 6 of 6
[2]
  survivor count: 1 of 6
T/C endpoint: mean survival time, dose: 400.0 mg/kg/injection, schedule: Q04DX003 (ip), vehicle: saline
  survivor count: 3 of 6

## COC(=O)c1ccc(N=NN(C)C)cc1
T/C endpoint: median survival time, dose: 23.0 mg/kg/injection, schedule: Q01DX009 (ip), vehicle: steroid suspending solution
  T/C: 135 % of control
T/C endpoint: median survival time, dose: 39.0 mg/kg/injection, schedule: Q01DX009 (ip), vehicle: steroid suspending solution
  T/C: 140 % of control
T/C endpoint: median survival time, dose: 65.0 mg/kg/injection, schedule: Q01DX009 (ip), vehicle: steroid suspending solution
  T/C: 140 % of control
T/C endpoint: median survival time, dose: 65.0 mg/kg/injection, schedule: Q04DX003 (ip), vehicle: steroid suspending solution
  T/C: 130 % of control
T/C endpoint: median survival time, dose: 108.0 mg/kg/injection, schedule: Q04DX003 (ip), vehicle: steroid suspending solution
  T/C: 125 % of control
T/C endpoint: median survival time, dose: 300.0 mg/kg/injection, schedule: Q01DX001 (ip), vehicle: steroid suspending solution
  T/C: 140 % of control
T/C endpoint: median survival time, dose: 500.0 mg/kg/injection, schedule: Q01DX001 (ip), vehicle: steroid suspending solution
  survivor count: 7 of 8
T/C endpoint: median survival time, dose: 833.0 mg/kg/injection, schedule: Q01DX001 (ip), vehicle: steroid suspending solution
  survivor count: 2 of 8

## Oc1ccccc1C=NCC[N-]CCN=Cc1ccccc1O.[Cu+]
T/C endpoint: mean survival time, dose: 12.5 mg/kg/injection, schedule: Q04DX003 (ip), vehicle: Klucel (hydroxypropylcellulose) (HPC)
  survivor count: 3 of 6
T/C endpoint: mean survival time, dose: 25.0 mg/kg/injection, schedule: Q04DX003 (ip), vehicle: Klucel (hydroxypropylcellulose) (HPC)
  survivor count: 0 of 6
T/C endpoint: mean survival time, dose: 50.0 mg/kg/injection, schedule: Q04DX003 (ip), vehicle: Klucel (hydroxypropylcellulose) (HPC)
  survivor count: 0 of 6
T/C endpoint: mean survival time, dose: 100.0 mg/kg/injection, schedule: Q04DX003 (ip), vehicle: Klucel (hydroxypropylcellulose) (HPC)
  survivor count: 0 of 6
[4]
  survivor count: 0 of 6
[5]
  survivor count: 0 of 6

## COC(=O)C1=C(c2ccncc2)c2cccc3cccc1c23
T/C endpoint: mean survival time, dose: 400.0 mg/kg/injection, schedule: Q04DX003 (ip), vehicle: alcohol
  survivor count: 1 of 6

## O=C1/C(=N/O)CCc2ccccc21
T/C endpoint: mean survival time, dose: 200.0 mg/kg/injection, schedule: Q01DX009 (ip), vehicle: saline
  survivor count: 5 of 6
T/C endpoint: mean survival time, dose: 400.0 mg/kg/injection, schedule: Q01DX001 (ip), vehicle: carboxymethylcellulose (CMC)
  survivor count: 2 of 4

## O/N=C(\Cl)c1ccc(/C(Cl)=N\O)cc1
T/C endpoint: mean survival time, dose: 40.0 mg/kg/injection, schedule: Q01DX001 (ip), vehicle: saline
  survivor count: 2 of 4
T/C endpoint: mean survival time, dose: 80.0 mg/kg/injection, schedule: Q01DX001 (ip), vehicle: saline
  survivor count: 1 of 4

## Cc1cc(=O)c(CCl)n[nH]1
T/C endpoint: mean survival time, dose: 50.0 mg/kg/injection, schedule: Q01DX009 (ip), vehicle: Klucel (hydroxypropylcellulose) (HPC)
  survivor count: 6 of 6
T/C endpoint: mean survival time, dose: 100.0 mg/kg/injection, schedule: Q01DX009 (ip), vehicle: Klucel (hydroxypropylcellulose) (HPC)
  survivor count: 0 of 6
[4]
  survivor count: 4 of 6
[5]
  survivor count: 0 of 6

## O=C1OI(Cl)c2ccccc21
T/C endpoint: mean survival time, dose: 400.0 mg/kg/injection, schedule: Q04DX002 (ip), vehicle: Klucel (hydroxypropylcellulose) (HPC)
  survivor count: 2 of 3

## CCCCSCCN
T/C endpoint: mean survival time, dose: 300.0 mg/kg/injection, schedule: Q01DX009 (ip), vehicle: Klucel (hydroxypropylcellulose) (HPC)
  survivor count: 0 of 6

## CC(C)N(C(C)C)C(C)CCNc1c2ccccc2nc2cc(Cl)ccc12 (centres undefined)
T/C endpoint: mean survival time, dose: 2.0 mg/kg/injection, schedule: Q01DX Z (ip), vehicle: methylcellulose (MC)
  T/C: 129 % of control
T/C endpoint: mean survival time, dose: 7.0 mg/kg/injection, schedule: Q01DX Z (ip), vehicle: methylcellulose (MC)
  T/C: 139 % of control

## NNC(=O)c1ccccc1O
T/C endpoint: mean survival time, dose: 400.0 mg/kg/injection, schedule: Q01DX001 (ip), vehicle: other
  survivor count: 0 of 4

## COc1cccc(C)c1NC1=NCCO1
T/C endpoint: mean survival time, dose: 12.5 mg/kg/injection, schedule: Q04DX003 (ip), vehicle: saline with Tween-80
  survivor count: 5 of 6
[3]
  survivor count: 0 of 6
[1]
  survivor count: 0 of 6
[2]
  survivor count: 0 of 6
